This passage reports binding results from PMC9570119.

This assay concerns the target FLAG-tagged FAIM-S (Fas Apoptosis Inhibitory Molecule, short form) expressed in HLE B-3 cells (human) (UniProt Q9NVQ4). The assay is described as follows: co-IP; HLE B-3 cells, treated and harvested as the HeLa cells (FLAG-FAIM-S, cellular stress induction); anti-FLAG immunoprecipitation; Western blot for HSP27, αA- and αB-crystallin. In general terms: In western blotting, separated proteins are transferred to a membrane and probed.

Results are given in words; binding and its absence hold for the method and conditions named. In cells and extracts the contact can be indirect. Some binding calls cover weakened binding; strength is not graded here. Tags and fused reporters may be left off the sequences shown.

B1: αB-crystallin (protein, UniProt P02511 1-175)
chain: MDIAIHHPWIRRPFFPFHSPSRLFDQFFGEHLLESDLFPTSTSLSPFYLRPPSFLRAPSWFDTGLSEMRLEKDRFSVNLDVKHFSPEELKVKVLGDVIEVHGKHEERQDEHGFISREFHRKYRIPADVDPLTITSSLSSDGVLTVNGPRKQVSGPERTIPITREEKPAVTAAPKK
For B1, the binding result is given as “binds”.
